# Reference: patent publication US20040009947A1, “Compounds and methods for enhancing delivery of free polynucleotide” (priority 1998, published 2004)
# For at least one compound, name, drawing or mass did not settle the structure.
# What was measured:
# [1] = molecular target: T1, dornase alpha (Pulmozyme) (Homo sapiens, UniProt P24855); experiment: In vitro nuclease test, plasmid degradation by gel electrophoresis; type: biochemical; conditions: plasmid incubated 37C, FIGS. 2A-2B
# T1 construct: purchased Genentech
# T1 sequence (P24855 23-282): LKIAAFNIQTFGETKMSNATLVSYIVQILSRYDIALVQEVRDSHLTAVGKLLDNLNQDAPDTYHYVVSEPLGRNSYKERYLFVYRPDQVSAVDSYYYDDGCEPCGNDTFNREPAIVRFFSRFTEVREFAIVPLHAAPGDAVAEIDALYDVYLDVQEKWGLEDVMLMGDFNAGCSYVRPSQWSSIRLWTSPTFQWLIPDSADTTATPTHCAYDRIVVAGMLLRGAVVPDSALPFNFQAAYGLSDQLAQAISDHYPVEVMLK
# [2] = tested on: macaque respiratory tissues; experiment: Bronchoscopic administration of plasmid +/- ATA to macaque lung, luciferase assay and histology; type: in vivo; conditions: 48 hours
# Method: Extending the experiment from murine to nonhuman primate respiratory tissues, the activity of ‘free’ plasmid DNA +/− ATA in macaque respiratory tissues using male rhesus macaques was tested. Initially, the lavage fluid is tested for DNAse activity +/− ATA by incubation with plasmid after which gel electrophoresis is performed as described above with murine lung lavage samples. After a 70 day quarantine, the animals are treated using three general techniques. For direct administration of […] to pulmonary parenchyma, macaques are anesthetized (ketamine, veterinarian assisted) and a pediatric bronchoscope will be passed per nasum with direct visualization of the bronchial tree. Typically, plasmid preparations (3 ml/Kg macaque weight) or related treatments (plasmid/ATA mixtures etc.) are instilled directly via the bronchoscope into the right lower lobe. The left upper lobe of the same macaque is used as an internal control. […]
# As described above, relative luciferase activity is determined using the Enhanced Luciferase Assay Kit and a Monolight 2010 luminometer (both from Analytical Luminescence Laboratories, San Diego, Calif.). […] Luciferase light emissions from 31 microliters of the lysate are measured over a 10 second period, and results are expressed as a function of total protein, total tissue mass, and total DNA dose.
structure (smiles),measurement,setting,value
"O=C(O)C1=CC(=C(c2ccc(O)c(C(=O)O)c2)c2ccc(O)c(C(=O)O)c2)C=CC1=O [ATA, aurin tricarboxylic acid]",Inhibition of pulmozyme DNAse activity,[1],inhibition
same,Luciferase activity in tissues treated with free plasmid and ATA versus free plasmid,[2],substantially higher levels of luciferase activity
